No constants are given. Whether binding was seen depends on the method and setting. In cells and extracts the contact can be indirect. Some entries that bind do so weakly or less than the wild type. Sequences can lack the tags named with a protein.
Target: T1, pcDNA3.1 N-RAD54 (1-212) Rluc-F(1) (UniProt Q92698)
T1 sequence: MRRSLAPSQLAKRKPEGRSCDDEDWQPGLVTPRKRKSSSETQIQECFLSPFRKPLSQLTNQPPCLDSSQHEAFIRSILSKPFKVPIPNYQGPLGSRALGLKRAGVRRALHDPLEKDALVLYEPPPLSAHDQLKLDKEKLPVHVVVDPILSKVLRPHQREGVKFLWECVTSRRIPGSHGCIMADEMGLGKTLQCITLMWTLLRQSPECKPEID
Test: split reporter; Renilla luciferase protein complementation assay in HEK293T cells transfected with N-RAD54 F1 and BLM F2; 37 °C for 2 hours without or with small molecules (1nM to 100µM); Rluc activity after coelenterazine h

B1: pcDNA3.1 BLM (181-212) Rluc-F(2) (domain or fragment)
chain: STAQKSKKGKRNFFKAQLYTTNTVKTDLPPPS
With B1 the binding was “binds”.
